These are yes or no findings as the source states them, for the method shown. Binding seen in cells or lysates may run through a third protein. A yes stands for co-enrichment or nearness to the bait. Other partners may have been found. Tags and fused reporters may be left off the sequences shown.

Protein sequences, listed by entry. Tags and fused reporters are not part of them.
UniProt O95166: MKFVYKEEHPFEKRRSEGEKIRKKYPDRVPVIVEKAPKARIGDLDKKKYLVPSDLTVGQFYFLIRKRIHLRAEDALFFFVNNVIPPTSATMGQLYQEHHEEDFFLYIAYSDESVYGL
UniProt P60520: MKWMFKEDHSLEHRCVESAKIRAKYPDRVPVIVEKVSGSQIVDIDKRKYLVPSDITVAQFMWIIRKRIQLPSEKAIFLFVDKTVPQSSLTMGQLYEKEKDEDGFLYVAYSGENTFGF
UniProt Q15436: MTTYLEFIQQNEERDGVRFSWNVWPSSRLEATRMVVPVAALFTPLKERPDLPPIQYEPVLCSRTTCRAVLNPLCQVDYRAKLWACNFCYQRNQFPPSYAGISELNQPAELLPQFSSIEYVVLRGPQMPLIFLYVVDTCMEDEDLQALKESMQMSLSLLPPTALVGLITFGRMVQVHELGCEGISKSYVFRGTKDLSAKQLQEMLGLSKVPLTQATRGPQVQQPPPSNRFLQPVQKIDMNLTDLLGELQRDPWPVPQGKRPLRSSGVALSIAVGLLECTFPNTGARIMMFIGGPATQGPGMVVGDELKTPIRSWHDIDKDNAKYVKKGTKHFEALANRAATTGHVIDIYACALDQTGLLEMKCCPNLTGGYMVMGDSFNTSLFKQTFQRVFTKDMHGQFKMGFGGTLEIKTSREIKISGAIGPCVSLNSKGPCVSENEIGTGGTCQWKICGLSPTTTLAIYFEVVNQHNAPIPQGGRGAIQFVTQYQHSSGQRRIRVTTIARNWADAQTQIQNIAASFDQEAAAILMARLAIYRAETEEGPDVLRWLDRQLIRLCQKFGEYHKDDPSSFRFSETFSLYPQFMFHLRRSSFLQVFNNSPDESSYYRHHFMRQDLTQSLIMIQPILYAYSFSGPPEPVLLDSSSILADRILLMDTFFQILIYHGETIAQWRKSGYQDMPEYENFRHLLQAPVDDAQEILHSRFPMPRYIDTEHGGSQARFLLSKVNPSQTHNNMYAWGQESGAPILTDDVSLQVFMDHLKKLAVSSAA
UniProt P60468: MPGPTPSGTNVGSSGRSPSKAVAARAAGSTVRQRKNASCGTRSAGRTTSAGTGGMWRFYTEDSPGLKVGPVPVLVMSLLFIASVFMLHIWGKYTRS
UniProt Q9Y296: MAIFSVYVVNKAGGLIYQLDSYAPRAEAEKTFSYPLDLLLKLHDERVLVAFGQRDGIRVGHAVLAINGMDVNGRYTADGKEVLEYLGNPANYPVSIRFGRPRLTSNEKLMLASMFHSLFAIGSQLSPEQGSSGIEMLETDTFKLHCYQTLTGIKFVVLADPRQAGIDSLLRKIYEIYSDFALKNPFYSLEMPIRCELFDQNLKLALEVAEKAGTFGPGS
UniProt Q9Y2L5: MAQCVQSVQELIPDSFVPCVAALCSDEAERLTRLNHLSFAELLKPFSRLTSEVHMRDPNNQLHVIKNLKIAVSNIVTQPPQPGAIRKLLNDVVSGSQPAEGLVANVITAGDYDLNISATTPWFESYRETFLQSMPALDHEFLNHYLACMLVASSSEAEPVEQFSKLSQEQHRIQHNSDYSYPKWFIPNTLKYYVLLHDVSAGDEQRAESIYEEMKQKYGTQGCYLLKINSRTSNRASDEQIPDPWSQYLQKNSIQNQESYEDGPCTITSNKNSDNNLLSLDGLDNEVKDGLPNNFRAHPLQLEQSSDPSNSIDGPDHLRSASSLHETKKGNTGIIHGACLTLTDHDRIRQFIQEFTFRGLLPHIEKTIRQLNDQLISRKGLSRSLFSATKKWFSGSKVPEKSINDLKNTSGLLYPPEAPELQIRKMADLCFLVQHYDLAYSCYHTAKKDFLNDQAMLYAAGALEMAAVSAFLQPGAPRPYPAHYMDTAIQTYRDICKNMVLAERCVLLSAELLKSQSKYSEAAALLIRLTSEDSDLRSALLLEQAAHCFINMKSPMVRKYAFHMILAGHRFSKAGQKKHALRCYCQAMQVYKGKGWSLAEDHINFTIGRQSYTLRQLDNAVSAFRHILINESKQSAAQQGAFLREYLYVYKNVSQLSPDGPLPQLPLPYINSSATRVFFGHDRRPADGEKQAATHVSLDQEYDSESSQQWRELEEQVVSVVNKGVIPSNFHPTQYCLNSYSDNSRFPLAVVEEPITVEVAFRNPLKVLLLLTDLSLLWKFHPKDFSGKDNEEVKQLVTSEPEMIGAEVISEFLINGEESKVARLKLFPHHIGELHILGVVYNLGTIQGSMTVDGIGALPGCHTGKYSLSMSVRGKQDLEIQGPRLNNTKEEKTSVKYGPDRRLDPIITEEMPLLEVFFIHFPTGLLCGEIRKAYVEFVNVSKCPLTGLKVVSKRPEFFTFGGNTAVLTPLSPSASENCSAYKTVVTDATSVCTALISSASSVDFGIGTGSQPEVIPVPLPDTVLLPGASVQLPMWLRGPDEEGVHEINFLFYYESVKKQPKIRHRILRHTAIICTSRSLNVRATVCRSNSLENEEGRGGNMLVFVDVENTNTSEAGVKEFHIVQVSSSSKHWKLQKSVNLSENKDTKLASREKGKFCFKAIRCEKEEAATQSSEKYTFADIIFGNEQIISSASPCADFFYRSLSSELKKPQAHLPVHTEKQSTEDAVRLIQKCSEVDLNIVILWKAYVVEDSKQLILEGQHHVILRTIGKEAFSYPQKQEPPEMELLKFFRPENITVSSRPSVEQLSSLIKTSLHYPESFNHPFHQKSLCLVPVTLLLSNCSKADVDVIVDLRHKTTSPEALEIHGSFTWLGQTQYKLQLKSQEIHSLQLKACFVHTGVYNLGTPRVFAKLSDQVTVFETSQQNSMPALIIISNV
UniProt Q7Z392: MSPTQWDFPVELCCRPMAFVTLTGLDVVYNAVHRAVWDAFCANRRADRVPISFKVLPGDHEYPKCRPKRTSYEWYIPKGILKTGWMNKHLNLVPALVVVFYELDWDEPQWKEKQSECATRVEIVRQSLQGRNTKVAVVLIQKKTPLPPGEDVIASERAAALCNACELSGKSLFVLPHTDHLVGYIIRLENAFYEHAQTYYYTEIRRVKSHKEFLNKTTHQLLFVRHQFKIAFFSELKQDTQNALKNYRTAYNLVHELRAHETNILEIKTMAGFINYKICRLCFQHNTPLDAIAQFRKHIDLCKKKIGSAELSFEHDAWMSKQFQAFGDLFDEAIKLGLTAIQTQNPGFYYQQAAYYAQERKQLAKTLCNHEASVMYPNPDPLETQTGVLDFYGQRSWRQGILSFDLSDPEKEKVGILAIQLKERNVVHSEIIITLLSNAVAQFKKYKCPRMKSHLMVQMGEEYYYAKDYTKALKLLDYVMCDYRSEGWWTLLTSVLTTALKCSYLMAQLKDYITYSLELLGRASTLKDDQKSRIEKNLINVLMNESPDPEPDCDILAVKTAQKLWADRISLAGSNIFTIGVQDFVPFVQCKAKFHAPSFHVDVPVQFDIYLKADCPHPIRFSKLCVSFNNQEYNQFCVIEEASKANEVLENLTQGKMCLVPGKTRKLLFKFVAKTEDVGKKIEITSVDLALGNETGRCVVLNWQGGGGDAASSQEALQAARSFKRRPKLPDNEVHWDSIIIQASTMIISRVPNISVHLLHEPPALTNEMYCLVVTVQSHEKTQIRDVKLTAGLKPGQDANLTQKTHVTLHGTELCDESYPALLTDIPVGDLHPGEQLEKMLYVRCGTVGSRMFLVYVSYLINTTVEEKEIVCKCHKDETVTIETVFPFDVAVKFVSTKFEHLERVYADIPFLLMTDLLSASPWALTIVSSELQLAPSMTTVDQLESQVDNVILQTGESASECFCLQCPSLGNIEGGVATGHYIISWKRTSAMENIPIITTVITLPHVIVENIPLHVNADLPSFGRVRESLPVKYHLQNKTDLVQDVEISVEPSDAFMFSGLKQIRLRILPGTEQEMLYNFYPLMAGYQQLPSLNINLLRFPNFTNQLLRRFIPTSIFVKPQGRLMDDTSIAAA

This test deals with T1, HA-TECPR2 WT (UniProt O15040).
T1 sequence: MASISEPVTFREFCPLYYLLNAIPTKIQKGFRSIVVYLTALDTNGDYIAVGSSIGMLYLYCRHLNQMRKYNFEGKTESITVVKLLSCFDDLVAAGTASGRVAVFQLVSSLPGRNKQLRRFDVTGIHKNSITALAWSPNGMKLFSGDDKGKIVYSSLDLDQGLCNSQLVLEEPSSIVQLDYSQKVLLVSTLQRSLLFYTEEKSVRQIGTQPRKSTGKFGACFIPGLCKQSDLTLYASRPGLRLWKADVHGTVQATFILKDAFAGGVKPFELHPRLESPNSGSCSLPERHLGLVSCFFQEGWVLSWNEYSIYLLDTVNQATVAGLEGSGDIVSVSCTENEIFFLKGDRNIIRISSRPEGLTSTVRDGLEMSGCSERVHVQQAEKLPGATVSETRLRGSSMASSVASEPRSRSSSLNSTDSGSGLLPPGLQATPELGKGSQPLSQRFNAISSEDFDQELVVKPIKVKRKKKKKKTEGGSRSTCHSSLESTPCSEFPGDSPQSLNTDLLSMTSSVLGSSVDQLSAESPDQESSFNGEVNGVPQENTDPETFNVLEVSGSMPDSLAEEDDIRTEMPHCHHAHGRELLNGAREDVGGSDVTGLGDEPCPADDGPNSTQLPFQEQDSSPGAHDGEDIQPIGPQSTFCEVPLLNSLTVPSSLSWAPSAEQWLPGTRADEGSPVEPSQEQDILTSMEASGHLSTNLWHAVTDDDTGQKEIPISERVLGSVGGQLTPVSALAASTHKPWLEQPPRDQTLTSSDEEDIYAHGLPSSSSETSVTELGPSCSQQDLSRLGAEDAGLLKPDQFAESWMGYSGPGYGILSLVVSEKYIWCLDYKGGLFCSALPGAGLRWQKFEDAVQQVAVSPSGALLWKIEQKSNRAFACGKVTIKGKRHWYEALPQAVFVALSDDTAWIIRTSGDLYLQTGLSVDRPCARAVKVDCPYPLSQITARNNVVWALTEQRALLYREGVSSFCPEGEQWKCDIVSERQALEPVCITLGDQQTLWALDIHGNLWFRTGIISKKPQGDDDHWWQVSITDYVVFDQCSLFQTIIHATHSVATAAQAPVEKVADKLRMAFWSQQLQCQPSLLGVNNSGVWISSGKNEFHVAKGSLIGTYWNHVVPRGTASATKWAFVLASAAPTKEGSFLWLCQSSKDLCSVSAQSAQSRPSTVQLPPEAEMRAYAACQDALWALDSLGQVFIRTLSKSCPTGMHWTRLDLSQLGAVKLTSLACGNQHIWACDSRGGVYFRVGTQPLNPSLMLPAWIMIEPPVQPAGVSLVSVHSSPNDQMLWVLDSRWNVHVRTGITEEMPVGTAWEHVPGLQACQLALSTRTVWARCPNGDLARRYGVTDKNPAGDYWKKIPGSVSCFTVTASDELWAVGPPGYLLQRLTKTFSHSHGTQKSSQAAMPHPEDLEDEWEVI
The experiment in a line: affinity purification with mass spectrometry; HA-TECPR2 WT or L440Rfs in TECPR2 MUT 293T cells; lysis in MCL-buffer (50 mM Tris pH 7.4, 150 mM NaCl, 0.5% NP40); HA agarose overnight 4 °C; elution with HA peptide; label-free quantification; controls: empty cells and HA-FIP200/RB1CC1.
Regarding GABARAP (from UniProt O95166 1-117), the binding result is given as “binds”.

Turning to GABARAPL2 (from UniProt P60520 1-117), the binding result is reported as “binds”.

Take SEC23A (from UniProt Q15436 1-765): the binding result is “binds”.

Turning to SEC61B (from UniProt P60468 1-96), the binding result is “binds”.

On to TRAPPC4 (from UniProt Q9Y296 1-219), for which the binding result is given as “binds”.

On to TRAPPC8 (from UniProt Q9Y2L5 1-1435), for which the binding result was “binds”.

For TRAPPC11 (from UniProt Q7Z392 1-1133), the binding entry is listed as “binds”.
